In the supplement of paper PMC10849652:
The other results are listed elsewhere or left out. Residues, ends and D or L forms follow the SMILES beside them. *: point of attachment. Cbz = O=C(OCc1ccccc1)*

By UniProt entry, the sequences of proteins in these tests, tags left out. Where a name states a change or a piece, a line headed by the entry shows the natural chain unless it says otherwise.
UniProt P04083: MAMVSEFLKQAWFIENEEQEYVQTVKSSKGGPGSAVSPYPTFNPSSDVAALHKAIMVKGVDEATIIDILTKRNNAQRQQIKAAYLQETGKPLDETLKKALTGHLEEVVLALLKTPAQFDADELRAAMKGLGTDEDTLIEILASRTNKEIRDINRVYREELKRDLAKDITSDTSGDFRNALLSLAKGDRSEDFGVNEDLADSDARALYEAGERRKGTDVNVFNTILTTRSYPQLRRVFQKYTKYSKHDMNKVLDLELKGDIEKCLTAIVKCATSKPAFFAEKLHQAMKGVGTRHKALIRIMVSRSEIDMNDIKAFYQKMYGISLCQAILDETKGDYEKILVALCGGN
UniProt Q9HC16: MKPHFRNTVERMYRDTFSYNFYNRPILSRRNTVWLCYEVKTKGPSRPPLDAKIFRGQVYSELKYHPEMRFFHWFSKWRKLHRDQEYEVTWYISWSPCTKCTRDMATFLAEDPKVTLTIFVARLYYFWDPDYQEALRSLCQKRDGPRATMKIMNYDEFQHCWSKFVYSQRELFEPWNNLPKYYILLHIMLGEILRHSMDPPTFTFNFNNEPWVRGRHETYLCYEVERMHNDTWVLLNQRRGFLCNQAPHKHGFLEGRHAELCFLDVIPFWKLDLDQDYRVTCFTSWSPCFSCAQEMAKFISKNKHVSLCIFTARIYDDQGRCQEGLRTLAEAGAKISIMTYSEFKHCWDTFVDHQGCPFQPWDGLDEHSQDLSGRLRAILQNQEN
UniProt Q9UJX6, whole entry, looked up: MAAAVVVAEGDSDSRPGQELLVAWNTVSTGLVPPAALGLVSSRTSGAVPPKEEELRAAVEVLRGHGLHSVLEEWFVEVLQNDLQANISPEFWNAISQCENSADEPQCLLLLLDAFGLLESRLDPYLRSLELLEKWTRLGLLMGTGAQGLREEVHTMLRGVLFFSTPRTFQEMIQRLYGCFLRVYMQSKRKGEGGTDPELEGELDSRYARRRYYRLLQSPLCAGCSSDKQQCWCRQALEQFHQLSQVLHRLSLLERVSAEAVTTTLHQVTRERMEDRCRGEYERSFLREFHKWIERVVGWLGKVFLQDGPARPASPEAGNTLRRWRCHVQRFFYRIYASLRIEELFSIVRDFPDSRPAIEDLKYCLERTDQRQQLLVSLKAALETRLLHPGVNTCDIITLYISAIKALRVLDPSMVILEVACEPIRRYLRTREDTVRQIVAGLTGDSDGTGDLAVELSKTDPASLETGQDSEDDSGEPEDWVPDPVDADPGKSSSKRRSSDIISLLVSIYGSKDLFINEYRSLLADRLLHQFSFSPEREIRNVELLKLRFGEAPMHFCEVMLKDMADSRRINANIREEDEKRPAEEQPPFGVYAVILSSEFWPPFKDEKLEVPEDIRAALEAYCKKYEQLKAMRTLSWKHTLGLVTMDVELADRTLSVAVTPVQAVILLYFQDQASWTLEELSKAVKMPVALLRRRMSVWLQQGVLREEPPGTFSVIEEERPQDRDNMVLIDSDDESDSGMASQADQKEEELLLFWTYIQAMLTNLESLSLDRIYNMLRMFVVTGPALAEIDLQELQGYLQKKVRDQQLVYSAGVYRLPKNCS
UniProt Q9UKG1: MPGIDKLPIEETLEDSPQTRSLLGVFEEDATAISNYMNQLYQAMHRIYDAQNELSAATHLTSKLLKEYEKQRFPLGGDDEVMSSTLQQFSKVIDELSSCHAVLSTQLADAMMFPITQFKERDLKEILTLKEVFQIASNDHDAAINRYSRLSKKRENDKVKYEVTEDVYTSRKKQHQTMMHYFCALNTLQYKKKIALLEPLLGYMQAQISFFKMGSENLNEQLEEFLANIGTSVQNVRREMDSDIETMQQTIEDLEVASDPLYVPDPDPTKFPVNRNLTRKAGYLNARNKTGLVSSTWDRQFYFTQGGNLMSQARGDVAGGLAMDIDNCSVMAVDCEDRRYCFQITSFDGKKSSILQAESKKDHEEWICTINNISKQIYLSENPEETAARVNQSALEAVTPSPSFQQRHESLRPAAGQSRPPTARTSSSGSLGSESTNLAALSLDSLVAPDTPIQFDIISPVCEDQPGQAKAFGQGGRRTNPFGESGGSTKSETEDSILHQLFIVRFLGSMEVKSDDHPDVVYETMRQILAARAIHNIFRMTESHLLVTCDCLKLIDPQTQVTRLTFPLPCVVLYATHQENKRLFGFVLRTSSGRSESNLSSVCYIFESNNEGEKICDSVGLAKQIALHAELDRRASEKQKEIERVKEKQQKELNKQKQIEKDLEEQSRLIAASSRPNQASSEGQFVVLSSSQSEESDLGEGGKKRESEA
UniProt P02647, whole entry, looked up: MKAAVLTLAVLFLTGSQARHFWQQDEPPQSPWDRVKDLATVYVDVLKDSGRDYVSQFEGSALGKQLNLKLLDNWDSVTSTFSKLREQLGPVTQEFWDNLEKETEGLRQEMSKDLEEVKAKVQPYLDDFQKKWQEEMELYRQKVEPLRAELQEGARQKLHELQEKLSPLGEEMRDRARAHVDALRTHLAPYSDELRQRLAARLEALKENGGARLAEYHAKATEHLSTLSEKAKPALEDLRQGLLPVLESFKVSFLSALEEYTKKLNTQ
UniProt O15084: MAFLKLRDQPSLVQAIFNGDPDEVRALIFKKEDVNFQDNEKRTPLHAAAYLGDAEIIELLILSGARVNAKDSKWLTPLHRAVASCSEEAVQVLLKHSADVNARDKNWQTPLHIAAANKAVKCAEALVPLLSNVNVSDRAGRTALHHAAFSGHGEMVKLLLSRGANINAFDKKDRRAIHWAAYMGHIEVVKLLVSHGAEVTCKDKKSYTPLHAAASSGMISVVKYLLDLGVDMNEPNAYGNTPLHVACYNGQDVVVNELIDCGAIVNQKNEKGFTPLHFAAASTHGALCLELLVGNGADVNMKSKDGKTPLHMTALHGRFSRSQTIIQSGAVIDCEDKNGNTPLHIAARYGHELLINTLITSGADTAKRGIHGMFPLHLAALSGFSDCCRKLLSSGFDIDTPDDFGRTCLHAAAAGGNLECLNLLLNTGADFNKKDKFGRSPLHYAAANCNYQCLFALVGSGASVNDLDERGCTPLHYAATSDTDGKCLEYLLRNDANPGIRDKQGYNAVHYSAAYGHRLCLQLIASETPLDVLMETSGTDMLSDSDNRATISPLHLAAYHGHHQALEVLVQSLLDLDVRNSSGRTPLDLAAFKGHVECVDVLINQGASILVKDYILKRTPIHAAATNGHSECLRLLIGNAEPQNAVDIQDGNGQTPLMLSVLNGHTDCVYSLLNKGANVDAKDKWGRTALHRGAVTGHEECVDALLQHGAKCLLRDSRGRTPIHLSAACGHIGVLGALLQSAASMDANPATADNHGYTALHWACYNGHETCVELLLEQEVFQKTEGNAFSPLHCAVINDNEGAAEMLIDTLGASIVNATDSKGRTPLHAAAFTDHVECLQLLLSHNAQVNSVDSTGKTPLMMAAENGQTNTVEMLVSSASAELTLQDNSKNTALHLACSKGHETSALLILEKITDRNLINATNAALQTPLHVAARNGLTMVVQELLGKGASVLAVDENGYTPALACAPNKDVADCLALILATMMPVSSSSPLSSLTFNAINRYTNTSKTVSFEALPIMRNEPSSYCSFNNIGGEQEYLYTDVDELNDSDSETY
UniProt Q8N6D5: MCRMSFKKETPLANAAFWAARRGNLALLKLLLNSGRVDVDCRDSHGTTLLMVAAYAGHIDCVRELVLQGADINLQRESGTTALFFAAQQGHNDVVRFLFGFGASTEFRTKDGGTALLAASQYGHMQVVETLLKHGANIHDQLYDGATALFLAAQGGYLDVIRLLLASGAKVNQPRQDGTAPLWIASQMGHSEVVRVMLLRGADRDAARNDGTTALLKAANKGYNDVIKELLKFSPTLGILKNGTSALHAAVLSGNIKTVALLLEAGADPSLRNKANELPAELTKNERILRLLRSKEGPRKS
UniProt Q8N6T3: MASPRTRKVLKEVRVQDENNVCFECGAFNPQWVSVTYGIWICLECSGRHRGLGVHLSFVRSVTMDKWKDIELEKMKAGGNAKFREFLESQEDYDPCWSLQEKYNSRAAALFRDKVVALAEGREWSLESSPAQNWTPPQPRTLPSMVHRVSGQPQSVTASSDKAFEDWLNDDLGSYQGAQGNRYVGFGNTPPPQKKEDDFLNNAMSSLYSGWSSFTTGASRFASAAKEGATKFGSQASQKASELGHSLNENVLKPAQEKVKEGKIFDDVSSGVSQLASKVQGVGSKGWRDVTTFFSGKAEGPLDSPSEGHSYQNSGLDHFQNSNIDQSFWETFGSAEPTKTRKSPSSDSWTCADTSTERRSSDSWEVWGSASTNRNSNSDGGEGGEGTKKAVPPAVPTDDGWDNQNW
UniProt P53367: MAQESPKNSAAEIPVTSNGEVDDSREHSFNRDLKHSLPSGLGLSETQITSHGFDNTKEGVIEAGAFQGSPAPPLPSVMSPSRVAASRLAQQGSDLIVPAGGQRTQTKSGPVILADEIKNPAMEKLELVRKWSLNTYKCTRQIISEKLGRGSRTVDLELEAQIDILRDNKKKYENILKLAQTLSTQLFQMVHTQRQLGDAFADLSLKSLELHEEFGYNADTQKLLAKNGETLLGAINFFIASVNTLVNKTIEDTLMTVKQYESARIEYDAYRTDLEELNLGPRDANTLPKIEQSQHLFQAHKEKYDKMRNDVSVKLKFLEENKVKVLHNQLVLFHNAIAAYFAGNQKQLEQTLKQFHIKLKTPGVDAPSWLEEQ
UniProt Q96AK3: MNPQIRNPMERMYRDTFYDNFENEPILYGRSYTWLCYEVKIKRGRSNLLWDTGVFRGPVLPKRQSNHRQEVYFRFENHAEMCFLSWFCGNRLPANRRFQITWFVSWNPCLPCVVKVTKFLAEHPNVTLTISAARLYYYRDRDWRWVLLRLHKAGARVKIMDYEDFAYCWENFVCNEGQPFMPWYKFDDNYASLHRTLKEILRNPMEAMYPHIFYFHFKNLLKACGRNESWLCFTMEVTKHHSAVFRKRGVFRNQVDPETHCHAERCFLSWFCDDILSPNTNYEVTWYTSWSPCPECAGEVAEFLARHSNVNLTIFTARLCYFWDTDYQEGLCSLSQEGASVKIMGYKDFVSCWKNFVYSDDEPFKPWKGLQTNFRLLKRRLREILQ
UniProt Q9NZN5: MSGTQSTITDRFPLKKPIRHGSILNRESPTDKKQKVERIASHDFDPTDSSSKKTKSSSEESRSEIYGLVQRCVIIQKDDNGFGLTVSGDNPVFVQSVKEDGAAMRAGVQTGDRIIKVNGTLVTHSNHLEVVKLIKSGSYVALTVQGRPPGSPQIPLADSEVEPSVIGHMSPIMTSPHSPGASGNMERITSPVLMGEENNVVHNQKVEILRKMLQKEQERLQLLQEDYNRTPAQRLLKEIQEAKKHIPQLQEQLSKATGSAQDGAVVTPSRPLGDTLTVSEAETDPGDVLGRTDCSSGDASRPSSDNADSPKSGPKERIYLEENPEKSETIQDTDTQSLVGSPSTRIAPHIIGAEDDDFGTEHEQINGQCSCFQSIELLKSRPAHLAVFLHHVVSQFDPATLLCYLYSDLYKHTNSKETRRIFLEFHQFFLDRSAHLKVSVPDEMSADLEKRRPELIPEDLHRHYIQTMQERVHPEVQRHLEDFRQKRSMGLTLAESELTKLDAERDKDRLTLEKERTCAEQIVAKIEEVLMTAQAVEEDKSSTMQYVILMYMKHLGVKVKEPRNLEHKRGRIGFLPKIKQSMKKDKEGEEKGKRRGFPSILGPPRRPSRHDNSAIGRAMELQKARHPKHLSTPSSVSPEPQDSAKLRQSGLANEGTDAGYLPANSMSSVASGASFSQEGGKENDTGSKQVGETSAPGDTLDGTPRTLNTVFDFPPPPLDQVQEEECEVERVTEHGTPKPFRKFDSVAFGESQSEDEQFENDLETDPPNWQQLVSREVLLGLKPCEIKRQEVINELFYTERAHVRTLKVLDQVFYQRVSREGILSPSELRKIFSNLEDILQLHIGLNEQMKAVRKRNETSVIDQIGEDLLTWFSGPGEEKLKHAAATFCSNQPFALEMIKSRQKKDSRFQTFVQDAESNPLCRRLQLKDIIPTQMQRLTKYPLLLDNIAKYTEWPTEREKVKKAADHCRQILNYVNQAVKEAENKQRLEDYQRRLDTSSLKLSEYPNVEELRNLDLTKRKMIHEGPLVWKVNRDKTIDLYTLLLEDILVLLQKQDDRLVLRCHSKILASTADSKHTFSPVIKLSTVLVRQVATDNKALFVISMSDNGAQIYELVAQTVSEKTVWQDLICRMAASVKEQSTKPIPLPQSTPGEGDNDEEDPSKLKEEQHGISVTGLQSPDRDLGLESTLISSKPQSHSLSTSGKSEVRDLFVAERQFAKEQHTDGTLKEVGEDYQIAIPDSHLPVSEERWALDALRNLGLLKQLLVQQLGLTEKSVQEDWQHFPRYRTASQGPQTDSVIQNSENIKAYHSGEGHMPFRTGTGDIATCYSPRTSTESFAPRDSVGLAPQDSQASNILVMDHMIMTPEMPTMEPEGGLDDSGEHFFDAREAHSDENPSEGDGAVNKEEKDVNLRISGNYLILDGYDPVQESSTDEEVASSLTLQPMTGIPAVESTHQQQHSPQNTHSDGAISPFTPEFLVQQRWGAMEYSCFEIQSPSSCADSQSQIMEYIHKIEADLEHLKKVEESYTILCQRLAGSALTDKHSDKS

Assays:
Experiment in all cases: log2 fold change, soluble protein after heating vs DMSO (PISA); higher = thermal stabilisation; K562 cells, 10 uM, 30 min; active = over 0.2 and 3.5 SD of the protein, either way, in both replicates (recomputed)
IRAK-1-4 Inhibitor I = compound: C1COCCN1CCN2C3=CC=CC=C3N=C2NC(=O)C4=CC(=CC=C4)[N+](=O)[O-] [IRAK-1-4 Inhibitor I]
Method in brief: (§1)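 K562 cells at 2×10^6 cells/mL were exposed to 10 μM compound for 30 min, then aliquots were heated for 3 min across 48°C-58°C, pooled, and extracted in PBS containing 0.5% NP-40 at 4°C. The supernatant after 21,000xg for 90 min was taken as soluble protein and measured by TMTpro 16plex LC-MS/MS with channel sums equalised. Thermal stability is reported relative to control samples, with values from duplicates. Fold changes are given on a log2 scale.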

ibrutinib = compound: C=CC(=O)N1CCC[C@@H](n2nc(-c3ccc(Oc4ccccc4)cc3)c3c(N)ncnc32)C1 [ibrutinib]
Method in brief: as §1

[1] = compound: CC(=O)c1cnc2ccc(-c3cc(Cl)c(O)c(Cl)c3)nc2c1N[C@H]1CC[C@H](CN(C)C)CC1
Method in brief: as §1

ralimetinib = compound: CC(C)(C)Cn1c(N)nc2ccc(-c3[nH]c(C(C)(C)C)nc3-c3ccc(F)cc3)nc21 [ralimetinib]
Method in brief: as §1

[2] = compound: CC(C)(O)CC(=O)NCCn1ccc2ncnc(Nc3ccc(Oc4cccc(C(F)(F)F)c4)c(Cl)c3)c21
Method in brief: as §1

[3] = compound: CC(C)C1=C2N=C(C=C(N2N=C1)NCC3=CC=CC=C3)NCCCCCCN
Method in brief: as §1

[4] = compound: CC(C)C[C@@H](C=O)NC(=O)[C@H](CC(C)C)NC(=O)[C@H](CC(C)C)NC(=O)OCc1ccccc1
Method in brief: as §1

pinometostat = compound: CC(C)N(C[C@H]1O[C@@H](n2cnc3c(N)ncnc32)[C@H](O)[C@@H]1O)[C@H]1C[C@@H](CCc2nc3cc(C(C)(C)C)ccc3[nH]2)C1 [pinometostat]
Method in brief: as §1

[5] = compound: CC1=C(C(CC(=O)N1)C2=CC=C(C=C2)C(F)(F)F)C(=O)NC3=C(C=C4C(=C3)C=NN4)F
Method in brief: as §1

[6] = compound: CC1=C(C2=C(C=C1)C(=O)C3=CC=CC=C3N2CCCN)C
Method in brief: as §1

Measured: log2 fold change

ANKRD17 (UniProt O75179)
inactive: IRAK-1-4 Inhibitor I -0.043 | ibrutinib -0.044 | [1] -0.112 | ralimetinib 0.205 | [2] 0 | [3] -0.146 | [4] 0.109 | pinometostat 0.268 | [5] 0.028 | [6] -0.094

APRT (UniProt P07741)
inactive: IRAK-1-4 Inhibitor I 0.065 | ibrutinib 0.006 | [1] 0.004 | ralimetinib -0.038 | [2] -0.017 | [3] 0.037 | [4] -0.006 | pinometostat -0.053 | [5] -0.005 | [6] 0.008

ANXA1 (UniProt P04083)
inactive: IRAK-1-4 Inhibitor I -0.049 | ibrutinib -0.042 | [1] -0.001 | ralimetinib 0.02 | [2] -0.119 | [3] -0.156 | [4] 0.008 | pinometostat -0.01 | [5] 0.019 | [6] -0.012

AP2M1 (UniProt Q96CW1)
inactive: IRAK-1-4 Inhibitor I -0.049 | ibrutinib 0.043 | [1] -0.043 | ralimetinib 0.036 | [2] 0.022 | [3] 0.045 | [4] 0.011 | pinometostat 0.026 | [6] 0.079

APOBEC3G (UniProt Q9HC16)
inactive: IRAK-1-4 Inhibitor I -0.064 | ibrutinib 0.103 | [1] -0.111 | ralimetinib 0.128 | [2] 0.075 | [3] 0.046 | [4] 0.077 | pinometostat 0.11
active: [6] -0.492

AP1AR (UniProt Q63HQ0)
inactive: IRAK-1-4 Inhibitor I -0.01 | ibrutinib 0.035 | [1] 0.013 | ralimetinib -0.049 | [2] 0.009 | [3] -0.042 | [4] 0.016 | pinometostat -0.058 | [5] 0.059 | [6] -0.013

ARGLU1 (UniProt Q9NWB6)
active: [1] -0.633
inactive: IRAK-1-4 Inhibitor I -0.289 | ibrutinib -0.019 | ralimetinib -0.029 | [2] 0.15 | [3] 0.023 | [4] -0.001 | pinometostat 0.127 | [6] 0.134

ANXA5 (UniProt P08758)
inactive: IRAK-1-4 Inhibitor I -0.013 | ibrutinib -0.05 | [1] -0.019 | ralimetinib -0.018 | [2] -0.006 | [3] -0.069 | [4] 0.017 | pinometostat -0.026 | [6] 0.032

ANK1 isoform 14 (UniProt P16157)
inactive: IRAK-1-4 Inhibitor I -0.19 | ibrutinib -0.044 | [1] 0.101 | ralimetinib 0.339 | [2] 0.001 | [3] -0.431 | [4] 0.257 | pinometostat 0.538 | [5] 0.02 | [6] -0.141

ANAPC2 (UniProt Q9UJX6)
inactive: IRAK-1-4 Inhibitor I 0.018 | ibrutinib -0.045 | [1] 0.005 | ralimetinib 0.011 | [2] -0.025 | [3] -0.083 | [4] 0.055 | pinometostat 0.078 | [6] -0.051

APPL1 (UniProt Q9UKG1)
inactive: IRAK-1-4 Inhibitor I 0.016 | ibrutinib -0.067 | [1] -0.074 | ralimetinib -0.024 | [2] 0.037 | [3] 0.006 | [4] 0.069 | pinometostat 0.059 | [6] -0.011

ANKZF1 (UniProt Q9H8Y5)
inactive: IRAK-1-4 Inhibitor I -0.052 | ibrutinib 0.031 | [1] -0.19 | ralimetinib 0.189 | [2] 0 | [3] -0.065 | [4] 0.192 | pinometostat 0.136 | [6] -0.069

APC (UniProt P25054)
inactive: IRAK-1-4 Inhibitor I -0.091 | ibrutinib 0.144 | [1] -0.272 | ralimetinib -0.117 | [2] 0.021 | [3] -0.504 | [4] 0.239 | pinometostat 0.152 | [6] -0.022

APOA1 (UniProt P02647)
inactive: IRAK-1-4 Inhibitor I 0.018 | ibrutinib 0.221 | [1] 0.007 | ralimetinib -0.139 | [2] 0.25 | [3] 0.12 | [4] -0.006 | pinometostat -0.035 | [5] -0.123 | [6] -0.083

ANP32E (UniProt Q9BTT0)
inactive: IRAK-1-4 Inhibitor I 0.016 | ibrutinib 0.019 | [1] -0.128 | ralimetinib -0.035 | [2] -0.067 | [3] -0.181 | [4] -0.036 | pinometostat 0.028 | [6] -0.214

ANKRD28 (UniProt O15084)
inactive: IRAK-1-4 Inhibitor I 0.012 | ibrutinib 0.011 | [1] -0.081 | ralimetinib 0.013 | [2] -0.022 | [3] 0.005 | [4] -0.045 | pinometostat 0.029 | [5] 0.042 | [6] -0.012

ANKRD29 (UniProt Q8N6D5)
inactive: IRAK-1-4 Inhibitor I -0.001 | ibrutinib -0.18 | [1] 0.026 | ralimetinib -0.057 | [2] -0.15 | [3] 0.007 | [4] -0.153 | pinometostat -0.012 | [6] 0.024

ARFGAP1 (UniProt Q8N6T3)
inactive: IRAK-1-4 Inhibitor I -0.008 | ibrutinib 0.005 | [1] -0.013 | ralimetinib 0.07 | [2] -0.012 | [3] -0.11 | [4] -0.017 | pinometostat -0.027 | [6] 0.002

AP2B1 isoform 2 (UniProt P63010)
inactive: IRAK-1-4 Inhibitor I -0.002 | ibrutinib 0.025 | [1] -0.034 | ralimetinib 0 | [2] 0.008 | [3] 0.029 | [4] 0.005 | pinometostat 0.011 | [6] 0.035

ARAF (UniProt P10398)
inactive: IRAK-1-4 Inhibitor I 0.011 | ibrutinib 0.005 | [1] -0.13 | ralimetinib 0.097 | [2] -0.064 | [3] -0.056 | [4] 0.021 | pinometostat 0.043 | [6] 0.041

ARF4 (UniProt P18085)
inactive: IRAK-1-4 Inhibitor I 0.072 | ibrutinib 0.003 | [1] -0.027 | ralimetinib -0.019 | [2] -0.103 | [3] 0.117 | [4] -0.032 | pinometostat -0.042 | [6] 0.128

AP2S1 (UniProt P53680)
inactive: IRAK-1-4 Inhibitor I -0.054 | ibrutinib -0.01 | [1] -0.117 | ralimetinib -0.017 | [2] -0.003 | [3] 0.028 | [4] -0.07 | pinometostat 0.038 | [6] 0.091

ARF6 (UniProt P62330)
inactive: IRAK-1-4 Inhibitor I 0.012 | ibrutinib 0.03 | [1] 0.004 | ralimetinib 0.04 | [2] 0.001 | [3] 0.155 | [4] -0.091 | pinometostat -0.012 | [5] -0.015 | [6] 0.089

APIP (UniProt Q96GX9)
inactive: IRAK-1-4 Inhibitor I 0.05 | ibrutinib 0.033 | [1] 0.012 | ralimetinib -0.033 | [2] -0.045 | [3] 0.073 | [4] 0.034 | pinometostat -0.046 | [5] 0.046 | [6] 0.024

ARFGAP2 (UniProt Q8N6H7)
inactive: IRAK-1-4 Inhibitor I -0.016 | ibrutinib -0.064 | [1] -0.014 | ralimetinib -0.001 | [2] -0.032 | [3] 0.062 | [4] -0.005 | pinometostat 0.046 | [6] 0.005

AP2A2 isoform 2 (UniProt O94973)
inactive: IRAK-1-4 Inhibitor I -0.003 | ibrutinib -0.015 | [1] 0.008 | ralimetinib 0.006 | [2] 0.033 | [3] 0.019 | [4] 0.032 | pinometostat 0.025 | [6] 0.107

ARFIP1 (UniProt P53367)
inactive: IRAK-1-4 Inhibitor I -0.034 | ibrutinib -0.117 | [1] -0.075 | ralimetinib -0.104 | [2] -0.031 | [3] -0.011 | [4] -0.029 | pinometostat 0.006 | [6] 0.164

ANGPTL3 (UniProt Q9Y5C1)
inactive: IRAK-1-4 Inhibitor I -0.112 | ibrutinib 0.146 | [1] 0.169 | ralimetinib -0.049 | [2] 0.187 | [3] 0.112 | [4] -0.286 | pinometostat -0.072 | [6] -0.03

Copied from the entries so far (two entries):
APIP (UniProt Q96GX9)
inactive: IRAK-1-4 Inhibitor I 0.05 | ibrutinib 0.033 | [1] 0.012 | ralimetinib -0.033 | [2] -0.045 | [3] 0.073 | [4] 0.034 | pinometostat -0.046 | [5] 0.046 | [6] 0.024

ARFGAP2 (UniProt Q8N6H7)
inactive: IRAK-1-4 Inhibitor I -0.016 | ibrutinib -0.064 | [1] -0.014 | ralimetinib -0.001 | [2] -0.032 | [3] 0.062 | [4] -0.005 | pinometostat 0.046 | [6] 0.005

Continued.

ARHGAP1 (UniProt Q07960)
inactive: IRAK-1-4 Inhibitor I 0.025 | ibrutinib -0.014 | [1] -0.049 | ralimetinib -0.022 | [2] -0.014 | [3] 0.162 | [4] 0.023 | pinometostat 0 | [6] -0.014

APOBEC3D (UniProt Q96AK3)
inactive: IRAK-1-4 Inhibitor I -0.072 | ibrutinib 0.085 | [1] 0.068 | ralimetinib 0.254 | [2] 0.088 | [3] 0.031 | [4] 0.088 | pinometostat 0.028 | [6] -0.123

ARHGEF12 (UniProt Q9NZN5)
inactive: IRAK-1-4 Inhibitor I -0.148 | ibrutinib 0.214 | [1] 0.037 | ralimetinib 0.119 | [2] 0.083 | [3] -0.053 | [4] -0.032 | pinometostat 0.193 | [6] -0.001

ARFRP1 (UniProt Q13795)
inactive: IRAK-1-4 Inhibitor I -0.083 | ibrutinib 0.031 | [1] 0.02 | ralimetinib 0.004 | [2] -0.041 | [3] -0.028 | [4] -0.073 | pinometostat 0.017 | [6] 0.075
